Patent US20260335398A1, “METHODS FOR TREATING PANCREATIC CANCER WITH A COMBINATION OF DES-METHYL PATEAMINE A AND A CLASS I HDAC INHIBITOR” (Baylor University, priority 2023, published 2026)
At least one structure is not confirmed: it was looked up by name or label, or the drawing left a doubt.

Legend:
Format in all cases: cell-based
c-MYC = assay: Immunoblot of c-MYC protein levels following combination (FIG. 7); conditions: MIA PaCa-2 and KLM; DMPatA 2 nM, romidepsin 15 nM (6 h)
MIA PaCa-2 cells [1] = assay: Seahorse XF Real-Time ATP Rate Assay (FIG. 8A); conditions: 6 h romidepsin then 12 h washout with or without 2 nM DMPatA
Procedure: FIG. 8A compares quantification of ATP production rates. Seahorse XF Real-Time ATP Rate Assay was performed under control conditions or after treatment with the combination and single agents. Treatment was for a total of 18 h (i.e., 6-hour romidepsin followed by 12-hour washout with 2 nM DMPatA (combo) or without (Romi alone)). FIG. 8A left panel—ATP production rate from mitochondrial respiration (Mito-ATP); FIG. 8A right panel—ATP production rate from glycolysis (Glyco-ATP). At least two biological replicate experiments with n=3 technical replicates were performed. Statistical significance was determined by one-way ANOVA using Tukey multiple comparison's test in the Prism software. *p value<0.01.
(§1) Because reprograming/augmentation of cellular metabolism by c-MYC is known to support oncogenesis, the Seahorse XF analyzer was used to assess the impact of the treatments on c-MYC-driven metabolism including ATP production, glycolysis, and mitochondrial oxidative phosphorylation (OXPHOS). Extracellular acidification rates, also known as proton efflux rate (PER), were measured for glycolysis and mitochondrial oxygen consumption rates (OCR) for OXPHOS. […]
Oxygen consumption rates (OCR) and extracellular acidification rates (ECAR) were measured using the XF96 Extracellular Flux analyzer (Seahorse Bioscience). […]

MIA PaCa-2 cells [2] = assay: Glutamine consumption/rescue of mitochondrial function (ΔOCR) (FIG. 8C right); conditions: cells starved of glucose, glutamine and pyruvate 1 h, then glutamine
Procedure: FIG. 8C left panel presents the results of metabolic flux analysis showing basal mitochondrial respiration (OXPHOS) (oxygen consumption rate, OCR) in MIA PaCa-2 cells following treatment with combinations or single drugs. Treatment was for a total of 18 h, as mentioned in FIG. 8A. Statistical significance was determined by one-way ANOVA, ***p value<0.001, *p value<0.01. FIG. 8C right panel presents the results of quantification of glutamine consumption. Cells were treated as mentioned in FIG. 8A. Prior to the metabolic measurements cells were starved of glucose, glutamine, and pyruvate for 1-hour after which glutamine was added and response was recorded as ΔOCR (i.e. OCR before and after glutamine addition). Statistical significance was determined by one-way ANOVA, ****p value<0.0001, ***p value<0.0005.
as §1, with “OXPHOS. We utilized the 6 h exposure followed by 18 h washout strategy for romidepsin described earlier.” for “OXPHOS.”

KLM and MIA PaCa-2 cells = assay: Nascent RNA synthesis by EU labeling (FIG. 9B); conditions: total 18 h, 5-EU incorporation
Procedure: FIG. 9B left panel compares EU-labeled nascent RNA and (Hoechst counterstain) in KLM cells treated with combination and single agents. Scale bar: 1 μm. FIG. 9B right panels present quantification of fluorescence intensities of nascent RNA synthesis in both KLM and MIA PaCa-2 cell lines. Statistical significance was determined by one-way ANOVA using Tukey multiple comparison's test, ****p value<0.0001, **p value<0.0002, **p value<0.002.
This apparent hypertranscription observed with the combination, was confirmed by the increase in nascent RNA output above the level of normal cells, following treatment for a total of 18 hours (i.e., 6-hour romidepsin followed by 12-hour washout with or without 2 nM DMPatA), quantified using incorporation of the modified RNA precursor 5-EU. […] Because HDAC inhibitors cause histone hyperacetylation and having observed the increase in gene expression following treatment with the combination, the impact of the combination on histone acetylation was assessed.
To detect changes in the global RNA transcription we used the Click-iT RNA Alexa Fluor 594 Imaging Kit (Invitrogen, #C10330). Briefly, cells were cultured in complete media and pulsed for 60 min with alkyne-modified nucleoside, 5-ethynyl uridine (EU) at a final concentration of 1 mM. […]

Q: For `CC(/C=C/C(C)=C/[C@@H]1Cc2nc(cs2)CC[C@@H](N)CC(=O)O[C@@H](C)C/C(C)=C/C=C\C(=O)O1)=C\CN(C)C` [DMPatA, des-methyl pateamine A], which c-MYC protein levels (c-MYC) is on record?
A: reduced protein levels of c-MYC

Q: What about the “glycolytic ATP production (Glyco-ATP)” value (MIA PaCa-2 cells [1]) of the same molecule?
A: mainly impaired

Q: And the “glutamine rescue of mitochondrial function (ΔOCR)” value (MIA PaCa-2 cells [2])?
A: to a lesser extent

Q: What about the “nascent RNA (mRNA) synthesis” value (KLM and MIA PaCa-2 cells) of the same molecule?
A: to a lower extent
